# Measured values: PubChem BioAssay AID2662 (National Center for Advancing Translational Sciences (NCATS), 2010)
# Protein sequences, listed by entry. Tags and fused reporters are not part of them.
# UniProt Q03164, whole entry, looked up: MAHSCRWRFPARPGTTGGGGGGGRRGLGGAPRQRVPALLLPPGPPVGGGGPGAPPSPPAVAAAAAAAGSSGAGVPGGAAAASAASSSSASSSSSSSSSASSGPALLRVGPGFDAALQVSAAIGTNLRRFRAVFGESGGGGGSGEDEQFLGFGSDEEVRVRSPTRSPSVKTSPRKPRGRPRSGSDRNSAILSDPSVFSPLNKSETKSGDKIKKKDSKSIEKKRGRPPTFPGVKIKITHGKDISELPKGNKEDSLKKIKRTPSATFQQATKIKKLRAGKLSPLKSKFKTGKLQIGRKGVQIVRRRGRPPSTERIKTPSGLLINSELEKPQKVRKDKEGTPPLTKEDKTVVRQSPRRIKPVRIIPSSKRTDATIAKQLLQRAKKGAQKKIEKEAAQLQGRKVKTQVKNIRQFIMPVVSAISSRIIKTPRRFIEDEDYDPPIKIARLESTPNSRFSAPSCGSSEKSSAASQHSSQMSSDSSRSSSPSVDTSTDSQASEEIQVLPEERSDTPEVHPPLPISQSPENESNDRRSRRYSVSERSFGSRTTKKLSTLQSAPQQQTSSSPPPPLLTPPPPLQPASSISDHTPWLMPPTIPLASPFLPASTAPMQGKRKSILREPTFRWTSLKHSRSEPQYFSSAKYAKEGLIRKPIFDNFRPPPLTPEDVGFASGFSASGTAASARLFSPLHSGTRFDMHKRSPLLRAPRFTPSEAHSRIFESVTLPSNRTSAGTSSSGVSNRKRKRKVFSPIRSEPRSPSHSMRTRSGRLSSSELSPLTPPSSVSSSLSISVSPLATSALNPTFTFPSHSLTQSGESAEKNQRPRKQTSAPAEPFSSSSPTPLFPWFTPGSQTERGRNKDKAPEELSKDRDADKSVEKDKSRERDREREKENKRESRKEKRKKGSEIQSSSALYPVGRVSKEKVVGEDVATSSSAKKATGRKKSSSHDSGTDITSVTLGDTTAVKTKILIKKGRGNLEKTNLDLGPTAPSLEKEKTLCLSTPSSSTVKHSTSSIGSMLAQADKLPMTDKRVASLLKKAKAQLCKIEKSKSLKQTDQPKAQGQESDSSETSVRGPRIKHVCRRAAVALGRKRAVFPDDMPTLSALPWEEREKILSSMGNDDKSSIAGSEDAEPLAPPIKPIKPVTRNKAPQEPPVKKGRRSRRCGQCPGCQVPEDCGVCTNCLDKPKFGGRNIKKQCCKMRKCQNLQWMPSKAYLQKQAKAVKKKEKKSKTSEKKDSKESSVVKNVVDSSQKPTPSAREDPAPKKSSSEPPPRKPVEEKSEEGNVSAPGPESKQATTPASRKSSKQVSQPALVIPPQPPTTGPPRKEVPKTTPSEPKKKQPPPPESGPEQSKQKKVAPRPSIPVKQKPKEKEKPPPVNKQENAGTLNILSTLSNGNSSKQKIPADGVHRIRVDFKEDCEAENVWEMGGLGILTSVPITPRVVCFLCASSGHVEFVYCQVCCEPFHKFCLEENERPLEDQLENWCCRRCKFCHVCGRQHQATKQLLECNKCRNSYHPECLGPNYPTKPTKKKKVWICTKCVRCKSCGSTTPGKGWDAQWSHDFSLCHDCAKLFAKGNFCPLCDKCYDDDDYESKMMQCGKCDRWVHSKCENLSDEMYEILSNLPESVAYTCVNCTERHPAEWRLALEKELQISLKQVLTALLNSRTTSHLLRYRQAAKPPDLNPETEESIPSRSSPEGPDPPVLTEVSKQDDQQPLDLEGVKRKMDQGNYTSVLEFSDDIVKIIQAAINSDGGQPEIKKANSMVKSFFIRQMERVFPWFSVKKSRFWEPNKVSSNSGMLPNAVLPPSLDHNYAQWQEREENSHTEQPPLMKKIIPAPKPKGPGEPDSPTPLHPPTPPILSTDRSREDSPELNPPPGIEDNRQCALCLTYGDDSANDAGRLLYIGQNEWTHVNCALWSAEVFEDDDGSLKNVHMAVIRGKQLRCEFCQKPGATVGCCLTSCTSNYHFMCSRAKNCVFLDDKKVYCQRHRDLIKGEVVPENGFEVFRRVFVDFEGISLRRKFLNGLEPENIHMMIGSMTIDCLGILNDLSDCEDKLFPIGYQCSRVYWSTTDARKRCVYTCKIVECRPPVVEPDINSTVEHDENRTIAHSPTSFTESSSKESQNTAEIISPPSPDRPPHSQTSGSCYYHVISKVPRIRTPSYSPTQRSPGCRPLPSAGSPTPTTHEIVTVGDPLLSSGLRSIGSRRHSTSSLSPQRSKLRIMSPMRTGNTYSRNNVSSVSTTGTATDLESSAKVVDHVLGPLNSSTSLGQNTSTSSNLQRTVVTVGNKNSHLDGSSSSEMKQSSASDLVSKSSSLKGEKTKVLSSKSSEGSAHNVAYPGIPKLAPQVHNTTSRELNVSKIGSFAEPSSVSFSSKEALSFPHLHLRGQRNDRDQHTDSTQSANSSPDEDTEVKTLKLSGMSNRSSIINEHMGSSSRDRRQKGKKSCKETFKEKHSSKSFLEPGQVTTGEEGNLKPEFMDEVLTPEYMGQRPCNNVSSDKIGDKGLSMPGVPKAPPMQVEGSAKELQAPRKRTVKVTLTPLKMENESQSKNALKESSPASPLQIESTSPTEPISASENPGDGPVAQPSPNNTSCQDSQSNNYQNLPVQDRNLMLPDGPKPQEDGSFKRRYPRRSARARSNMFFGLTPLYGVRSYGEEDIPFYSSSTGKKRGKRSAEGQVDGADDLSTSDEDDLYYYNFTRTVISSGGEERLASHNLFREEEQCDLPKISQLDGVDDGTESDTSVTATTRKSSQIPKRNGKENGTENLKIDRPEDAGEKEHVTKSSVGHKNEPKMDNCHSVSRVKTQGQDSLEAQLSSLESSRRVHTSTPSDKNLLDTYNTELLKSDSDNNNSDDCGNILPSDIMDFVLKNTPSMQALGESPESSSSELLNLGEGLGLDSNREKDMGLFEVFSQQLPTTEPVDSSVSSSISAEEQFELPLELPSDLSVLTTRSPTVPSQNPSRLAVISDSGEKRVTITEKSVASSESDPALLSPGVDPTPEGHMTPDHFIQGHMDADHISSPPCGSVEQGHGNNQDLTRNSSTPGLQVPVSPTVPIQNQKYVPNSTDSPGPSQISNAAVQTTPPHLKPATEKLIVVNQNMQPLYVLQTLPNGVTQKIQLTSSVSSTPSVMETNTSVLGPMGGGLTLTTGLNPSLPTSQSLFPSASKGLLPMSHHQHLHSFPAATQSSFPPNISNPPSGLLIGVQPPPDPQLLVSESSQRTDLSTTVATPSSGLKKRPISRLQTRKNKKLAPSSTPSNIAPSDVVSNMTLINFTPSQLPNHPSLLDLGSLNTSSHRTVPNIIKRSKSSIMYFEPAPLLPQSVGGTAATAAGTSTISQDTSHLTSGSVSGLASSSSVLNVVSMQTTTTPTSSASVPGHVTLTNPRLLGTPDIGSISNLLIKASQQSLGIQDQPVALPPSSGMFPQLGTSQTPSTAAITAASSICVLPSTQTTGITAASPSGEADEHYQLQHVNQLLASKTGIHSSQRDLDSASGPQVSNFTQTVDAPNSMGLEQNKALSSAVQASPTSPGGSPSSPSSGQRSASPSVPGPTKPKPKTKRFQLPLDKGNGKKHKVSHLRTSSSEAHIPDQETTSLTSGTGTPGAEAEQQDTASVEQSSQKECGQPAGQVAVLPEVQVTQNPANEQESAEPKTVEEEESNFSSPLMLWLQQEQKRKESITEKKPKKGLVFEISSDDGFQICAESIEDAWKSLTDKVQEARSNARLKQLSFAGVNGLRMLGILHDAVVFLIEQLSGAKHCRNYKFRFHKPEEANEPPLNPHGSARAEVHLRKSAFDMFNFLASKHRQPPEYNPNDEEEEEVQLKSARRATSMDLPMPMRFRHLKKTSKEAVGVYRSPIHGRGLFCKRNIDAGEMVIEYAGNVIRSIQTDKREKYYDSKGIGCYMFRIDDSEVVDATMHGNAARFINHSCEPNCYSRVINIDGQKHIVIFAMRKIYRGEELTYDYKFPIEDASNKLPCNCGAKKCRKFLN
# Hit rate of the full screen: of about 290,000 compounds, about 110 (0.038%) were called active. The shares of active, inactive and inconclusive entries below differ from those in the screen. Calls come from the whole dose curve; as a rule, active = well fitted inhibition curve with a large enough effect in the polarisation, with a control signal flat (not every such curve was filed as active); inconclusive = small, poorly fitted or top-dose-only effect, or effect the other way, or a change in a side signal; inactive = no such curve, though single readings can be large or run the other way; the % refers to the polarisation. Where the call is inconclusive, the potency comes from a doubtful curve fit. A note “side channel” means that the fit belongs to a control or component signal, not to the main read-out.
# Target: Histone-lysine N-methyltransferase 2A (Homo sapiens) (UniProt Q03164)
# Assay: qHTS Fluorescence Polarization Assay for Inhibitors of MLL CXXC domain - DNA interaction
# Conditions: MLL-CXXC / FITC-HOXA9 DNA fluorescence polarization; series mostly up to 115 µM
# How it was run: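 Fluorescence polarization: 7 uM MLL-CXXC (stock) preincubated 5 min with compounds, then 50 nM fluorescein-HOX-A9 DNA (stock) added; 30 min ambient. Buffer 50 mM Tris-HCl pH 7.5, 50 mM NaCl, 1 mM DTT, 0.05% BSA.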
# Potency is the fitted concentration of half-maximal effect.
row,SMILES,Potency
1,COCCN1C(=S)N[C@@H](c2ccccc2)C(C(=O)OC)=C1C,"inconclusive: 35.5 µM [quencher, side channel, partial curve]"
2,CC1=CC(=C(C#N)C#N)c2ccccc2N1C,"inconclusive: 70.8 µM [fluorescent, side channel, single point]"
3,CC(C)Cc1ccc(CN2CCC(n3nccc3NC(=O)C3CCCC3)CC2)cc1,"inconclusive: 11.2 µM [quencher, side channel, single point]"
4,COc1ccc(NC(=O)CSc2ccc(-c3cccnc3)nn2)c(OC)c1,"inconclusive: 14.1 µM [fluorescent, side channel, single point]"
5,COc1ccc(NC(=O)c2ccco2)cn1,"inconclusive: 35.5 µM [fluorescent, side channel, single point]"
6,COc1ccc(C(=O)N2CC3(CC(c4ccc(Cl)cc4)=NO3)C[C@H]2C(=O)NCC(N)=O)cc1 (some centres not stated),"inconclusive: 20 µM [fluorescent, side channel, partial curve]"
7,O=C(O)C(Cc1ccccc1-c1ccccc1)C(=O)O,"inconclusive: 70.8 µM [inhibitor, single point]"
8,C=C(C)COc1ccc2c(CC)cc(=O)oc2c1,inactive
9,Cc1[nH]ccc2c1[nH]c1cc(=O)ccc12,"inconclusive: 8.91 µM [quencher, side channel, single point]"
10,COc1cc(/C=C2\SC(=S)N(NS(=O)(=O)c3ccccc3)C2=O)ccc1O,"inconclusive: 15.8 µM [fluorescent, side channel, partial curve]"
11,COc1ccc(Cc2nnc(NC(=O)Nc3ccc(F)cc3)s2)cc1OC,"inconclusive: 31.6 µM [inhibitor, partial curve]"
12,O=C(c1ccco1)N1CCN(c2ncnc3scc(-c4ccccc4)c23)CC1,"inconclusive: 1.12 µM [inhibitor, partial curve, poor fit]"
13,O=Cc1ccccc1C=O,"inconclusive: 35.5 µM [quencher, side channel, single point]"
14,Cc1nn(CC(=O)NCCCN2CCN(Cc3ccccc3)CC2)c(=O)c2cc(-c3ccccc3)nn12,inactive
15,CNC(=S)NCc1ccc2[nH]c3c(c2c1)CCCC3,"inconclusive: 35.5 µM [inhibitor, single point]"
16,COc1ccc(-c2cn3nc4c(nc3n2)CCCC4)cc1,"inconclusive: 6.31 µM [inhibitor, full curve, poor fit]"
17,CN(C)S(=O)(=O)c1ccc(C(=O)Nc2ccccc2SCCC#N)cc1,"inconclusive: 1.12 µM [quencher, side channel, full curve]"

# Two entries drawn at random from the list so far, as already listed:
row,SMILES,Potency
2,CC1=CC(=C(C#N)C#N)c2ccccc2N1C,"inconclusive: 70.8 µM [fluorescent, side channel, single point]"
6,COc1ccc(C(=O)N2CC3(CC(c4ccc(Cl)cc4)=NO3)C[C@H]2C(=O)NCC(N)=O)cc1 (some centres not stated),"inconclusive: 20 µM [fluorescent, side channel, partial curve]"
